Results taken from article PMC5019376.
Results are given in words; binding and its absence hold for the method and conditions named. In cells and extracts the contact can be indirect. Binding can be weak; no strength is given. Sequences can lack the tags named with a protein.

Molecular target: T1, TIR1 (wild type, BiFC fusion) (Arabidopsis) (UniProt Q570C0)
T1 sequence: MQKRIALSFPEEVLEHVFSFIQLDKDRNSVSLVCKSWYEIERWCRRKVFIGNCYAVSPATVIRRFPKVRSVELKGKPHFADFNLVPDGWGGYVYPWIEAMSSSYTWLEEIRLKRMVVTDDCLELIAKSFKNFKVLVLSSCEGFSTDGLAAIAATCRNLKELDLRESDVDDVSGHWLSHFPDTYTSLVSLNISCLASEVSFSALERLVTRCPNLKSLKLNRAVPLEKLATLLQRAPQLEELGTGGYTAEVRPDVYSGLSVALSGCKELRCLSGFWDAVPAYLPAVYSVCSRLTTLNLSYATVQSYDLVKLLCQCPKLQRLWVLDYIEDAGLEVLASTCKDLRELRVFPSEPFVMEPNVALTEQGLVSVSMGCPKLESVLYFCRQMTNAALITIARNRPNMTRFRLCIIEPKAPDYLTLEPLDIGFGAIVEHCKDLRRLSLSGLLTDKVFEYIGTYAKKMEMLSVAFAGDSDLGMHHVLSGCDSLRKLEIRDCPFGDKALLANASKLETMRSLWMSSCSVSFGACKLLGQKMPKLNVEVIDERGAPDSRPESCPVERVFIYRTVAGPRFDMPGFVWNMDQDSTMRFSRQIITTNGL
Assay: split reporter; BiFC after transient expression in Nicotiana benthamiana leaves, confocal imaging; some TIR1-TIR1 samples with co-expressed Myc:ASK1 and 100 uM CHX

Substance	binding
TIR1 mutated at Glu141 (BiFC fusion) (from UniProt Q570C0)	binds
TIR1 mutated at Ser139 (BiFC fusion) (from UniProt Q570C0)	binds
